HELM strings list residues between dots; [ac] is acetyl, [am] amide, other brackets name non-standard units.
Experiment: general procedure: solution-phase peptide synthesis; DCCI/HOBt; Bop; Boc-Phe-ONp/HOBt
Settings: coupling step

Substance “PEPTIDE1{[Boc].F.[Asp(OBzl)].[Sta].A.L.[OMe]}$$$$V2.0” has a step yield of 50%.
